This is an account of results in PMC13485503.

Amino acid sequences for entries named in this document (tags omitted). A change or cut given only in a name is not applied to a line headed by its entry.
UniProt Q9EPK5: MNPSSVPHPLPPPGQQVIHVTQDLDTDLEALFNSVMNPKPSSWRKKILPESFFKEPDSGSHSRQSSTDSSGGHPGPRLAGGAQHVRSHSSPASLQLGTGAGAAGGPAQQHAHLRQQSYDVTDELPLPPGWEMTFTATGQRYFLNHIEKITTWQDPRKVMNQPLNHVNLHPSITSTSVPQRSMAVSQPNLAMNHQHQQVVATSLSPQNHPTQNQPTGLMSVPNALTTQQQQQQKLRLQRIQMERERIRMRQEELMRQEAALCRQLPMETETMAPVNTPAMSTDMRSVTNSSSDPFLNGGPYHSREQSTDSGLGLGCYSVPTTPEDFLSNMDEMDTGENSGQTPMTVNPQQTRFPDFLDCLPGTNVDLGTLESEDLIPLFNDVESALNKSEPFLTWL
UniProt P0C0S6: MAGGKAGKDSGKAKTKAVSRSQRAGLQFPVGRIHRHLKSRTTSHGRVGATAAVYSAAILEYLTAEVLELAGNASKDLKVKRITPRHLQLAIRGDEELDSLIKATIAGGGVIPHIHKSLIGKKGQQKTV

These are yes or no findings as the source states them, for the method shown. In cells and extracts the contact can be indirect. Some binding calls cover weakened binding; strength is not graded here.

This experiment deals with Transcriptional co-activator with PDZ-binding motif (TAZ) (mouse (endogenous in TC-1)) (UniProt Q9EPK5). Put plainly: co-IP; TC-1 cell lysates incubated with Protein AG magnetic beads and primary antibody or IgG negative control at 4 °C overnight; three washes; Western blotting.

Take “H2A.Z, a histone H2A variant (from UniProt P0C0S6 1-128)”: the binding result is given as “binds”.
